Experimental data reported in PMC7528720.
No constants are given. Whether binding was seen depends on the method and setting. In cells and extracts the contact can be indirect. Some results given as binding are weak or reduced against the parent protein; the word gives no strength.

By UniProt entry, the sequences of proteins in these tests, tags left out.
UniProt P18266: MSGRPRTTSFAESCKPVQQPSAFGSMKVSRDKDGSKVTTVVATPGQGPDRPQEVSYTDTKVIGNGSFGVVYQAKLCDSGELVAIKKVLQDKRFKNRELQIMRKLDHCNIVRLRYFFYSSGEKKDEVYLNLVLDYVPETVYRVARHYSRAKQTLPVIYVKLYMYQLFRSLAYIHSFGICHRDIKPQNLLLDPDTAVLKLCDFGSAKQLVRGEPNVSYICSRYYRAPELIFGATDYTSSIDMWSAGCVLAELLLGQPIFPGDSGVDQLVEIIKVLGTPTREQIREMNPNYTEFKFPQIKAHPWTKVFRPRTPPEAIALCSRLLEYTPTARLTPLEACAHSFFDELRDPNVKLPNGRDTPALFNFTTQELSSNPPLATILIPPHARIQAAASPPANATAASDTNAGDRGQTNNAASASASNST
UniProt O35303: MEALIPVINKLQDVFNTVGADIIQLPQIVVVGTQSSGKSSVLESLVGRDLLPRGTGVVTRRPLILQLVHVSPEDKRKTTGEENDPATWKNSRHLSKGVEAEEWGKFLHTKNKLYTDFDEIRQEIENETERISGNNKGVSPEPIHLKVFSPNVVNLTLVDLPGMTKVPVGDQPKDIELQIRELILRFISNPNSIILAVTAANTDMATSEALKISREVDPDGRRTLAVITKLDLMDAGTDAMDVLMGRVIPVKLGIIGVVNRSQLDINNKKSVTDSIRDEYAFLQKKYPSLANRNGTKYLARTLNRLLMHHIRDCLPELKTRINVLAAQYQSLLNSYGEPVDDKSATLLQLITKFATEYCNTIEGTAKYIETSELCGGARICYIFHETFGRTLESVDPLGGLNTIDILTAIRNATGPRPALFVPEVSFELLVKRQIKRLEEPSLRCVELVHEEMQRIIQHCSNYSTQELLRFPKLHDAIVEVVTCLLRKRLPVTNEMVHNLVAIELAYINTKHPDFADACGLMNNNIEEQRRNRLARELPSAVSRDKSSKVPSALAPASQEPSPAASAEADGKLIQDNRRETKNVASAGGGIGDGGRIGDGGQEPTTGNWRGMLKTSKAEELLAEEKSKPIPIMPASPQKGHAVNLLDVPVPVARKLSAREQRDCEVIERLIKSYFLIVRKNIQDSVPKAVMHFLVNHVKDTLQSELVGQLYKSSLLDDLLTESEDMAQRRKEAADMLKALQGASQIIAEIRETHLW

Target: Glycogen synthase kinase-3β (rat (endogenous in H9c2)) (UniProt P18266)
Experiment: co-IP; H9c2 lysate supernatant incubated overnight at 4°C with anti-GSK-3β antibody, then protein A agarose beads 2 h at room temperature; washed six times with 1x IP buffer and once with 0.1x IP buffer; blot with anti-Drp1; cells after hypoxia/reoxygenation (H/R), with or without LS-102 pre-treatment

binding: binds
Substance: Dynamin-related protein1 (from UniProt O35303 1-755)
